Results are given in words; binding and its absence hold for the method and conditions named. For some assays here: Tags and fused reporters may be left off the sequences shown. Each block holds one binder with its values, some of them ahead of it.
Columns and labels:
[1] = target: His-tagged GalF from Escherichia coli (Escherichia coli K-12) (UniProt P0AAB6); assay: SEC; purified enzyme diluted fivefold (final 5 mg/ml) with 100 mM HEPES-NaOH pH 8.0, incubated 30 min at 4°C, then gel filtration; both purified
[2] = target: His-tagged GalF from Escherichia coli (Escherichia coli K-12) (UniProt P0AAB6); assay: SEC; gel filtration of the purified protein on Superdex 200 HR 10/30 in 25 mM Tris-HCl pH 8.0, 100 mM NaCl, 0.1 mM EDTA; mass from a calibration plot of standards; both purified
[3] = target: His-tagged GalF from Escherichia coli (Escherichia coli K-12) (UniProt P0AAB6); assay: SEC; purified enzyme diluted fivefold (final 5 mg/ml) with 100 mM Tris-HCl pH 8.0, incubated 30 min at 4°C, then gel filtration; both purified
[4] = target: GalF_(K198A) (Escherichia coli K-12) (UniProt P0AAB6); assay: SEC; gel filtration of the purified protein on Superdex 200 HR 10/30 in 25 mM Tris-HCl pH 8.0, 100 mM NaCl, 0.1 mM EDTA; mass from a calibration plot of standards; both purified
[5] = target: GalF_(M15T/H16R) (Escherichia coli K-12) (UniProt P0AAB6); assay: as above

binding [1]: no binding (tested: 5 mg/ml)
binding [2]: no binding
binding [3]: no binding (tested: 5 mg/ml)
B1: His-tagged GalF from Escherichia coli (protein, UniProt P0AAB6 1-297)
chain: MTNLKAVIPVAGLGMHMLPATKAIPKEMLPIVDKPMIQYIVDEIVAAGIKEILLVTHASKNAVENHFDTSYELESLLEQRVKRQLLAEVQSICPPGVTIMNVRQGEPLGLGHSILCARPAIGDNPFVVVLPDVVIDDASADPLRYNLAAMIARFNETGRSQVLAKRMPGDLSEYSVIQTKEPLDREGKVSRIVEFIEKPDQPQTLDSDIMAVGRYVLSADIWPELERTQPGAWGRIQLTDAIAELAKKQSVDAMLMTGDSYDCGKKMGYMQAFVKYGLRNLKEGAKFRKGIEKLLSE

binding [4]: no binding
B2: GalF_(K198A) (protein, UniProt P0AAB6 1-297)
chain: MTNLKAVIPVAGLGMHMLPATKAIPKEMLPIVDKPMIQYIVDEIVAAGIKEILLVTHASKNAVENHFDTSYELESLLEQRVKRQLLAEVQSICPPGVTIMNVRQGEPLGLGHSILCARPAIGDNPFVVVLPDVVIDDASADPLRYNLAAMIARFNETGRSQVLAKRMPGDLSEYSVIQTKEPLDREGKVSRIVEFIEAPDQPQTLDSDIMAVGRYVLSADIWPELERTQPGAWGRIQLTDAIAELAKKQSVDAMLMTGDSYDCGKKMGYMQAFVKYGLRNLKEGAKFRKGIEKLLSE

binding [5]: no binding
B3: GalF_(M15T/H16R) (protein, UniProt P0AAB6 1-297)
chain: MTNLKAVIPVAGLGTRMLPATKAIPKEMLPIVDKPMIQYIVDEIVAAGIKEILLVTHASKNAVENHFDTSYELESLLEQRVKRQLLAEVQSICPPGVTIMNVRQGEPLGLGHSILCARPAIGDNPFVVVLPDVVIDDASADPLRYNLAAMIARFNETGRSQVLAKRMPGDLSEYSVIQTKEPLDREGKVSRIVEFIEKPDQPQTLDSDIMAVGRYVLSADIWPELERTQPGAWGRIQLTDAIAELAKKQSVDAMLMTGDSYDCGKKMGYMQAFVKYGLRNLKEGAKFRKGIEKLLSE

— publication PMC4643126, “On the Ancestral UDP-Glucose Pyrophosphorylase Activity of GalF from Escherichia coli” (Frontiers in Microbiology, 2015)
